These are yes or no findings as the source states them, for the method shown. In cells and extracts the contact can be indirect. Some results given as binding are weak or reduced against the parent protein; the word gives no strength. Sequences can lack the tags named with a protein.
Target: FLAG-tagged TRIM25 (UniProt Q14258)
Test: co-immunoprecipitation and immunoblotting, epitope-tagged proteins co-transfected in HEK293T cells

Chains of the proteins cited; added tags and fusions are not shown.
UniProt Q14258: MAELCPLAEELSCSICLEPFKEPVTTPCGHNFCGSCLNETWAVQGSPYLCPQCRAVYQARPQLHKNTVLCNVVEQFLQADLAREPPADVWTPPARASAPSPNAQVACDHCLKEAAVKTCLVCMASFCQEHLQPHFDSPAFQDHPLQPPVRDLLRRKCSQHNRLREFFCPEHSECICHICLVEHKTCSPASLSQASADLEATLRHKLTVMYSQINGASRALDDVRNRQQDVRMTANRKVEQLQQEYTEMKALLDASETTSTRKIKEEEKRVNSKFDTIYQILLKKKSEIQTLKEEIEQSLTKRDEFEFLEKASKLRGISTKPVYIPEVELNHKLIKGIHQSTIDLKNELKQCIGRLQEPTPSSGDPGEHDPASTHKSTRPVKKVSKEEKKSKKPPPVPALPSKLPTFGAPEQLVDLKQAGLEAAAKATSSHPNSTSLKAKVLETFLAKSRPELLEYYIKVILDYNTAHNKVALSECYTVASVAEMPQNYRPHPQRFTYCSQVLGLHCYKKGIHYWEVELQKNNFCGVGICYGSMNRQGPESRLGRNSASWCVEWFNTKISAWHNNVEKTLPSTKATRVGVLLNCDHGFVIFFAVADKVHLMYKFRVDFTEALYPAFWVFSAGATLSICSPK

| binding | Binder |
| --- | --- |
| binds | Xpress (Xpr)-tagged human USP15 wild type (WT) (enzyme, not shown: small tags and cut ends) AEGGAADLDTQRSDIATLLKTSLRKGDTWYLVDSRWFKQWKKYVGFDSWDKYQMGDQNVYPGPIDNSGLLKDGDAQSLKEHLIDELDYILLPTEGWNKLVSWYTLMEGQEPIARKVVEQGMFVKHCKVEVYLTELKLCENGNMNNVVTRRFSKADTIDTIEKEIRKIFSIPDEKETRLWNKYMSNTFEPLNKPDSTIQDAGLYQGQVLVIEQKNEDGTWPRGPSTPNVKNSNYCLPSYTAYKNYDYSEPGRNNEQPGLCGLSNLGNTCFMNSAIQCLSNTPPLTEYFLNDKYQEELNFDNPLGMRGEIAKSYAELIKQMWSGKFSYVTPRAFKTQVGRFAPQFSGYQQQDCQELLAFLLDGLHEDLNRIRKKPYIQLKDADGRPDKVVAEEAWENHLKRNDSIIVDIFHGLFKSTLVCPECAKISVTFDPFCYLTLPLPMKKERTLEVYLVRMDPLTKPMQYKVVVPKIGNILDLCTALSALSGIPADKMIVTDIYNHRFHRIFAMDENLSSIMERDDIYVFEININRTEDTEHVIIPVCLREKFRHSSYTHHTGSSLFGQPFLMAVPRNNTEDKLYNLLLLRMCRYVKISTETEETEGSLHCCKDQNINGNGPNGIHEEGSPSEMETDEPDDESSQDQELPSENENSQSEDSVGGDNDSENGLCTEDTCKGQLTGHKKRLFTFQFNNLGNTDINYIKDDTRHIRFDDRQLRLDERSFLALDWDPDLKKRYFDENAAEDFEKHESVEYKPPKKPFVKLKDCIELFTTKEKLGAEDPWYCPNCKEHQQATKKLDLWSLPPVLVVHLKRFSYSRYMRDKLDTLVDFPINDLDMSEFLINPNAGPCRYNLIAVSNHYGGMGGGHYTAFAKNKDDGKWYYFDDSSVSTASEDQIVSKAAYVLFYQRQDTFSGTGFFPLDRETKGASAATGIPLESDEDSNDNDNDIENENCMHTN |
| binds | Xpress (Xpr)-tagged human USP15 mutant (L720R) (enzyme, not shown: small tags and cut ends) AEGGAADLDTQRSDIATLLKTSLRKGDTWYLVDSRWFKQWKKYVGFDSWDKYQMGDQNVYPGPIDNSGLLKDGDAQSLKEHLIDELDYILLPTEGWNKLVSWYTLMEGQEPIARKVVEQGMFVKHCKVEVYLTELKLCENGNMNNVVTRRFSKADTIDTIEKEIRKIFSIPDEKETRLWNKYMSNTFEPLNKPDSTIQDAGLYQGQVLVIEQKNEDGTWPRGPSTPNVKNSNYCLPSYTAYKNYDYSEPGRNNEQPGLCGLSNLGNTCFMNSAIQCLSNTPPLTEYFLNDKYQEELNFDNPLGMRGEIAKSYAELIKQMWSGKFSYVTPRAFKTQVGRFAPQFSGYQQQDCQELLAFLLDGLHEDLNRIRKKPYIQLKDADGRPDKVVAEEAWENHLKRNDSIIVDIFHGLFKSTLVCPECAKISVTFDPFCYLTLPLPMKKERTLEVYLVRMDPLTKPMQYKVVVPKIGNILDLCTALSALSGIPADKMIVTDIYNHRFHRIFAMDENLSSIMERDDIYVFEININRTEDTEHVIIPVCLREKFRHSSYTHHTGSSLFGQPFLMAVPRNNTEDKLYNLLLLRMCRYVKISTETEETEGSLHCCKDQNINGNGPNGIHEEGSPSEMETDEPDDESSQDQELPSENENSQSEDSVGGDNDSENGLCTEDTCKGQLTGHKKRLFTFQFNNLGNTDINYIKDDTRHIRFDDRQLRLDERSFRALDWDPDLKKRYFDENAAEDFEKHESVEYKPPKKPFVKLKDCIELFTTKEKLGAEDPWYCPNCKEHQQATKKLDLWSLPPVLVVHLKRFSYSRYMRDKLDTLVDFPINDLDMSEFLINPNAGPCRYNLIAVSNHYGGMGGGHYTAFAKNKDDGKWYYFDDSSVSTASEDQIVSKAAYVLFYQRQDTFSGTGFFPLDRETKGASAATGIPLESDEDSNDNDNDIENENCMHTN |
